Experimental data: publication PMC12040169 (PLOS Biology, 2025)
The list shows a part of the results.

tested on: T1, CTL2-GFP (C. trachomatis L2/434/Bu, GFP-expressing); parameters: species or system HeLa; Intracellular C. trachomatis growth in HeLa cells, bulk GFP fluorescence relative to DMSO; conditions: bulk GFP, single well; 28.5 h, 10 µM; inhibitor
T1 construct: L2/434/Bu, GFP-expressing

SMILES | % of control remaining [%]
COc1cccc(CN2CCN(C(=O)c3cccc(F)c3)CC2)c1OC [CBK074527] | 111.956
O=C(O)/C=C/c1cccc(-c2cn3ccnc3c(NCc3cccnc3)n2)c1 [CBK066283] | 160.89
O=C(CSc1nc(-c2cccs2)cc(C(F)(F)F)n1)NN1CCOCC1 [CBK307375] | 145.927
COCCc1noc(CC2CCN(c3cc(C)ncc3C#N)CC2)n1 [CBK304092] | 122.683
COc1cc(CNc2cc(-c3ccc4c(c3)OCO4)ncn2)cc(OC)c1OC [CBK037822] | 90.9992
O=C(CSc1ccc(Cl)cc1)Nc1cccc2nsnc12 [CBK267936] | 100
CCCC(=O)N1CCC(c2cc(C(F)F)c3c(C)noc3n2)CC1 [CBK285304] | 107.538
Cc1nn(C)cc1CN(C)S(=O)(=O)c1cccc([N+](=O)[O-])c1 [CBK265399] | 129.074
Cn1c(=O)c2c(ncn2CC(=O)Nc2ccccc2C#N)n(C)c1=O [CBK133465] | 114.986
CCn1nc(C)c(CN(C)C(=O)C2CC=CCC2C(=O)O)c1C (stereo not drawn) [CBK286884] | 113.688
CCn1c(CN2CCN(Cc3ccc4c(c3)OCO4)CC2)n[nH]c1=S [CBK013828] | 111.432
CCCCSc1nc(N)cc(N2CCC3(CCNC(=O)CC3)CC2)n1 [CBK307001] | 122.022
Cc1c(Br)c(C(F)(F)F)nn1CC(=O)Nc1ccc(Oc2cc([N+](=O)[O-])cc([N+](=O)[O-])c2)cc1 [CBK262558] | 96.673
CN1CCN(Cc2c(O)ccc3cc(-c4ccc(F)cc4)c(=O)oc23)CC1 [CBK267976] | 82.5335
COC(=O)[C@@H](C)NC(=O)[C@H]1CN(C(=O)c2cccnc2)CCN1C(=O)NC1CCCCC1 [CBK289632] | 145.229
COc1cc(C(C)=O)ccc1OC(=O)CN1C(=O)c2ccccc2C1=O [CBK262392] | 97.4353
OCCn1c(-c2ccc(Br)cc2)cn2c3ccccc3nc12 [CBK262167] | 80.3021
CCc1ccc(CNC(=O)Cn2nnc(-c3ccc(CN4CCC(C)CC4)cn3)n2)cc1 [CBK153928C] | 87.0802
O=C(NCCS(=O)(=O)c1ccccc1)c1cnc(-c2ccc(Cl)cc2)c(-c2ccncc2)c1 [CBK037587] | 97.6039
COc1ccc(S(=O)(=O)n2ccc3cc(N4CCN(C)CC4)ccc32)cc1OC [CBK000286C] | 136.081
O=C1NC2=C(C(=O)N(CC3CCCO3)C2)C(c2cccc(F)c2)N1 (stereo not drawn) [CBK282364] | 122.62

2 of the compounds above, with tabs:
SMILES	% of control remaining [%]
CCCC(=O)N1CCC(c2cc(C(F)F)c3c(C)noc3n2)CC1 [CBK285304]	107.538
Cc1c(Br)c(C(F)(F)F)nn1CC(=O)Nc1ccc(Oc2cc([N+](=O)[O-])cc([N+](=O)[O-])c2)cc1 [CBK262558]	96.673
